In PMC12533155:
Results are given in words; binding and its absence hold for the method and conditions named. In cells and extracts the contact can be indirect. Some binding calls cover weakened binding; strength is not graded here.

Chains of the proteins cited; added tags and fusions are not shown. Lines headed by an entry give the natural chain unless they say otherwise; changes in a name come on top. A line that says so, or that is headed by a name, gives the form on record, which may keep a tag or linker. Residues count along the entry.
UniProt O00506: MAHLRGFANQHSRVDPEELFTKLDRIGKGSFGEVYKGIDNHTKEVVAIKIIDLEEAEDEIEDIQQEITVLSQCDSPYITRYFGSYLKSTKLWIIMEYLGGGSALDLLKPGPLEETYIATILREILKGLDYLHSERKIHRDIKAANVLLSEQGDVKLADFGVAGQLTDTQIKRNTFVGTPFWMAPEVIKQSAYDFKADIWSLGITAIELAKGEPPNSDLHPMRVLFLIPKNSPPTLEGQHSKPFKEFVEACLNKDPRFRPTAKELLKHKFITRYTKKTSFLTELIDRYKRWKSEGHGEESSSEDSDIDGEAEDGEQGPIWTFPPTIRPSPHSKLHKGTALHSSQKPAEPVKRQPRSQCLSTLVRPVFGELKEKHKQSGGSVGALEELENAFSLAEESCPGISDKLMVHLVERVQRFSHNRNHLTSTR
UniProt P46934: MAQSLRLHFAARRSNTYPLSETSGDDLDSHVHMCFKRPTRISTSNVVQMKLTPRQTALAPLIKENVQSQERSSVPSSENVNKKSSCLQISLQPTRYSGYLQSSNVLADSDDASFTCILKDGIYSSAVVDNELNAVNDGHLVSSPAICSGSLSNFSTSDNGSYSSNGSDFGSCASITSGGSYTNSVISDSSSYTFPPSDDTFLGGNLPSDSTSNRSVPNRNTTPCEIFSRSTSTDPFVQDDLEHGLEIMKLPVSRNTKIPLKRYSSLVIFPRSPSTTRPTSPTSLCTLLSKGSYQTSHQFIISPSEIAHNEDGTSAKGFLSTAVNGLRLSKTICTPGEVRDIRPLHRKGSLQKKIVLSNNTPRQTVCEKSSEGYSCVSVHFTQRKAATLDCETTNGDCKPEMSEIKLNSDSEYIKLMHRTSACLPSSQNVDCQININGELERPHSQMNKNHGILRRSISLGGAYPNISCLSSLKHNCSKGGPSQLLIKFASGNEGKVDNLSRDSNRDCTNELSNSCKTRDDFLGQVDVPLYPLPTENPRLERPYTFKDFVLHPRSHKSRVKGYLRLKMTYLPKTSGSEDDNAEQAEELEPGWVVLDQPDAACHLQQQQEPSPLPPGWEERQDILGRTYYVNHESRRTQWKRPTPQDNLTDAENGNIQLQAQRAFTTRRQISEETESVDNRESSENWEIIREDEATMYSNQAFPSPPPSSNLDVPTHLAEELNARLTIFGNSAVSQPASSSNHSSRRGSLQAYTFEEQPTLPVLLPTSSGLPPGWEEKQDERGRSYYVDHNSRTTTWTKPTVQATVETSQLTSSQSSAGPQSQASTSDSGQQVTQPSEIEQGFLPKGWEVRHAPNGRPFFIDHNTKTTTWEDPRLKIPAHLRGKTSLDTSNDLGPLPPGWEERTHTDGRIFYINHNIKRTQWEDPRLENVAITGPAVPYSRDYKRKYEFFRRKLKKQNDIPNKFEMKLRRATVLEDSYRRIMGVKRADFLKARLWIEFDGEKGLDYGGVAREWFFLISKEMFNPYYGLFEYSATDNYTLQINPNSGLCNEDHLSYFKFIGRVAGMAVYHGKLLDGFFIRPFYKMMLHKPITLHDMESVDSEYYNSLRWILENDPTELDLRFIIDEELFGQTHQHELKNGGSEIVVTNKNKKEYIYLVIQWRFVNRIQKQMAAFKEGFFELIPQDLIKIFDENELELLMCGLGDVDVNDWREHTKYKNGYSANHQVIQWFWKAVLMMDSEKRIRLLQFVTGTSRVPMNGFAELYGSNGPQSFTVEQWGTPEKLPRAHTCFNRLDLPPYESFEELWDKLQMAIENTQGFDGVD
wild-type PD-L1, overexpressed from plasmid (Q9NZQ7, residues 19-290): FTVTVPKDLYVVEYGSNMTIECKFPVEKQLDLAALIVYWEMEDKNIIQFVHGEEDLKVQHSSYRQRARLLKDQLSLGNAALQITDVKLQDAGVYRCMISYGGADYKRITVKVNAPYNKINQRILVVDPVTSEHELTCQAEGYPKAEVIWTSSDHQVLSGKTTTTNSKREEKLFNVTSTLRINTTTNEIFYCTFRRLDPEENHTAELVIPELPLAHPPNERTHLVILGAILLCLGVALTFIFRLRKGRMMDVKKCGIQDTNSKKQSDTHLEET
phosphorylation null mutant PD-L1 (S283A), overexpressed from plasmid (Q9NZQ7, form named): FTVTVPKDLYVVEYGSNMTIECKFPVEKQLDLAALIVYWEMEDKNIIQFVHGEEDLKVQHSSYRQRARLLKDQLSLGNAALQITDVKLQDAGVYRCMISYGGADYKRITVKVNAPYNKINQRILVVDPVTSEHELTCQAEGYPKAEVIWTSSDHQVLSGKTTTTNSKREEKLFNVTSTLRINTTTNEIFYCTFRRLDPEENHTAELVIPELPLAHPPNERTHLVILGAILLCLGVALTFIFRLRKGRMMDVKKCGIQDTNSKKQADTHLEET

Assays:
[1] = biological target: Serine/threonine protein kinase 25 (STK25), endogenous (human (endogenous in RKO)) (UniProt O00506); experiment: co-IP; endogenous proteins; IP with anti-NEDD4 antibody (Figure 5P) or anti-STK25 antibody (Figure 5Q), Western blot; cell line not stated
[2] = biological target: NEDD4, endogenous (human (endogenous in RKO)) (UniProt P46934); experiment: as above
[3] = biological target: NEDD4, endogenous (human (endogenous in RKO)) (UniProt P46934); experiment: co-IP; anti-NEDD4 IP from RKO cells transfected with the indicated plasmids or siRNAs, Western blot (5S: STK25 knock-down, re-expression of STK25 wild type or K49R/D158N; 5T: PD-L1 knock-down, overexpression of PD-L1 wild type or S283A)
[4] = biological target: Serine/threonine protein kinase 25 (STK25), endogenous (human (endogenous in RKO)) (UniProt O00506); experiment: co-IP; endogenous proteins in RKO cells; reciprocal, IP with anti-STK25 antibody or anti-PD-L1 antibody, Western blot
[5] = biological target: PD-L1, endogenous (human (endogenous in RKO)) (UniProt Q9NZQ7); experiment: as above

| Substance | binding [1] | binding [2] | binding [3] | binding [4] | binding [5] |
| --- | --- | --- | --- | --- | --- |
| NEDD4, endogenous (from UniProt P46934 1-1319) (enzyme) | binds |  |  |  |  |
| PD-L1, endogenous (from UniProt Q9NZQ7 19-290) (ligand) | binds | binds | binds | binds |  |
| Serine/threonine protein kinase 25 (STK25), endogenous (from UniProt O00506 1-426) (enzyme) |  | binds |  |  | binds |
| phosphorylation null mutant PD-L1 (S283A), overexpressed from plasmid (from UniProt Q9NZQ7 19-290) (ligand) |  |  | binds |  |  |
| wild-type PD-L1, overexpressed from plasmid (from UniProt Q9NZQ7 19-290) (ligand) |  |  | binds |  |  |
